SMILES strings stand for the structures. pIC50: −log10 of the molar value. The match of structure and compound is tentative.

Protein sequences, listed by entry. Tags and fused reporters are not part of them. Residues count along the entry.
UniProt O75116, 11-552 limits assumed: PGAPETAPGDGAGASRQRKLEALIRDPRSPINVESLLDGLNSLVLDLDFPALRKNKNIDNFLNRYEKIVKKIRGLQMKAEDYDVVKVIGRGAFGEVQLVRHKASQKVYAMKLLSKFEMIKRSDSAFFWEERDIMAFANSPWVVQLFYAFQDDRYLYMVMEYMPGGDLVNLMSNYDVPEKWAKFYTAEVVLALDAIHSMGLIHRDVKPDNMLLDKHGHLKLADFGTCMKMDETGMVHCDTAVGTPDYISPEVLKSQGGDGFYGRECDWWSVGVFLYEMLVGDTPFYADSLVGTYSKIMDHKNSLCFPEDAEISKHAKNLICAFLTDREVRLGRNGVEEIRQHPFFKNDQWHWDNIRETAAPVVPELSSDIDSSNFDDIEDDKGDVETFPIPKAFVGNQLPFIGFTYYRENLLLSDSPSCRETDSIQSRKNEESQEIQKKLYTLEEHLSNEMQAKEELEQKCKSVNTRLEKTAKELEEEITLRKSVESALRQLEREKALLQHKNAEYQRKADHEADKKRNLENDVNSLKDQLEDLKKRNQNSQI

For this assay, the target named is N-terminal 6His-tagged ROCK2 catalytic domain 11-552 (Homo sapiens, UniProt O75116). The assay can be described thus: ROCK2 binding activity: ROCK2 inhibition, ADP-Glo Kinase Assay. The following applies: read-out: ADP-Glo kinase activity assay ROCK2 Category; 1.25 nM ROCK2, 100 μM long S6 peptide, 20 μM ATP; 1 hour pre-incubation. The protocol: Assay for ROCK2 inhibition was performed using the protein construct N-terminal 6His-tagged ROCK2 catalytic domain 11-552 (Dundee University, UK). Protein was purified from a baculovirus expression system. Long S6 peptide ([…]) was used as substrate. Kinase reactions were carried out in 15 μl volume in a 96-well plate (black, half area) using 1.25 nM constitutively active ROCK2 kinase, 100 μM long S6 peptide, 20 μM ATP and test compound in DMSO (or DMSO only for controls). The final concentration of DMSO was 1%. Assay buffer was 50 mM HEPES pH 7.5 supplemented with 0.2 mM EDTA, 10 mM magnesium acetate, 0.01% Tween-20, 1 mM DTT and 0.01% BSA. Test compounds were pre-incubated with ROCK2 kinase for 1 hour before addition of ATP and long S6 peptide. After incubation for a further 1 hour, the amount of ADP produced was measured using ADP-Glo Kinase Assay (Promega) as per manufacturer's instructions. The luminescence was measured on a PHERAstar FS (BMG Labtech). The concentration of test compound required to inhibit ADP production by 50% (the IC50) was calculated using a four-parameter logistic function with software by Dotmatics.
The category “+” refers to compounds with a ROCK2 IC50 value of >10 μM. The category “++” refers to compounds with a ROCK2 IC50 value of 10 to 3 μM. The category “+++” refers to compounds with a ROCK2 IC50 value of 3 to 0.3 μM. The category “++++” refers to compounds with a ROCK2 IC50 value of <0.3 μM.
Background: ADP-Glo first removes unused ATP, then detects ADP through luciferase.
In the case of `Cc1c[nH]c(-c2ccc(-c3nc(Nc4ccc5[nH]ncc5c4C4CC4)n(C)n3)cc2)n1`, the pIC50 is more than 6.52. The same measure for `CCc1cc(-c2ccc(-c3nc(Nc4ccc5[nH]ncc5c4C4CC4)n(C)n3)cc2)n[nH]1`: more than 6.52; for `Cn1ccc(-c2ccc(-c3nc(Nc4ccc5[nH]ncc5c4C4CC4)n(C)n3)cc2)n1`: more than 6.52; for `Cn1cc(-c2ccc(-c3nc(Nc4ccc5[nH]ncc5c4C4CC4)n(C)n3)cc2)cn1`: more than 6.52. For `Cn1nccc1-c1ccc(-c2nc(Nc3ccc4[nH]ncc4c3C3CC3)n(C)n2)cc1`, the pIC50 is more than 6.52.
